# Assay results published in the supplement of paper PMC4604168 (melanoma cell lines).
# Some of the results follow. Repeats are few or missing, and single values can be far off.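 Cells were imaged in 1,536-well plates, and nuclei stained with an antibody against cleaved PARP were counted against all DNA-stained nuclei to give the apoptosis fraction. Screening doses were chosen to leave most cells alive, and resting and induced cleaved-PARP levels differ strongly between cell lines.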
# Assays:
# Test in all cases: cleaved PARP positive nuclei fraction relative to DMSO control; melanoma cells; higher = more apoptosis
# Conditions in all cases: library dose: low library concentration; 72 h
# MZ2-MEL = system: MZ2-MEL
# MeWo = system: MeWo
# RPMI7951 = system: RPMI7951
# RVH-421 = system: RVH-421
# SkMel28 = system: SkMel28
# SkMel2 = system: SkMel2
# SkMel30 = system: SkMel30
# SkMel5 = system: SkMel5
# UACC257 = system: UACC257
# UACC62 = system: UACC62
# WM115 = system: WM115
# WM1716 = system: WM1716
# WM1745 = system: WM1745
# WM3526 = system: WM3526
# WM3619 = system: WM3619
# WM451Lu = system: WM451Lu
Structure (SMILES),cleaved PARP positive nuclei fraction (MZ2-MEL) [%],cleaved PARP positive nuclei fraction (MeWo) [%],cleaved PARP positive nuclei fraction (RPMI7951) [%],cleaved PARP positive nuclei fraction (RVH-421) [%],cleaved PARP positive nuclei fraction (SkMel28) [%],cleaved PARP positive nuclei fraction (SkMel2) [%],cleaved PARP positive nuclei fraction (SkMel30) [%],cleaved PARP positive nuclei fraction (SkMel5) [%],cleaved PARP positive nuclei fraction (UACC257) [%],cleaved PARP positive nuclei fraction (UACC62) [%],cleaved PARP positive nuclei fraction (WM115) [%],cleaved PARP positive nuclei fraction (WM1716) [%],cleaved PARP positive nuclei fraction (WM1745) [%],cleaved PARP positive nuclei fraction (WM3526) [%],cleaved PARP positive nuclei fraction (WM3619) [%],cleaved PARP positive nuclei fraction (WM451Lu) [%]
"Nc1ncn([C@H]2C[C@H](O)[C@@H](CO)O2)c(=O)n1 [decitabine] + C=CCn1c(=O)c2cnc(Nc3ccc(N4CCN(C)CC4)cc3)nc2n1-c1cccc(C(C)(C)O)n1 [MK1775] (first compound 0.1 µM, partner dose 0.02 µM)",56.4,55.6,273,96,72.5,79.7,65.5,75.6,41.2,104,56.1,143,98.9,60.8,124,70.3
"CS(=O)(=O)CCNCc1ccc(-c2ccc3ncnc(Nc4ccc(OCc5cccc(F)c5)c(Cl)c4)c3c2)o1 [lapatinib] + COc1cc(N2CCC(N3CCN(C)CC3)CC2)ccc1Nc1ncc(Cl)c(Nc2ccccc2S(=O)(=O)C(C)C)n1 [NVP-TAE684] (first compound 0.8 µM, partner dose 0.08 µM)",162,79.8,39.8,137,141,31.8,77.4,89.6,345,118,68.5,29.8,111,100,99.9,93.8
"C[C@@H](Oc1cc(-c2cnn(C3CCNCC3)c2)cnc1N)c1c(Cl)ccc(F)c1Cl [Crizotinib] + Oc1nc(-c2ccc(C(F)(F)F)cc2)nc2c1CSCC2 [XAV939] (first compound 0.2 µM, partner dose 2 µM)",117,99.6,62.2,107,92,80.1,38.1,85.7,154,72.3,102,219,97.6,59.2,102,74.5
"CCCS(=O)(=O)Nc1ccc(F)c(C(=O)c2c[nH]c3ncc(Cl)cc23)c1F + Cn1cc(/C=C2\C(=O)Nc3cccnc32)c2ccccc21 [GW441756] (first compound 0.08 µM, partner dose 0.4 µM)",40.4,135,70.9,102,101,24.9,57.6,75,245,304,64,89.8,95.8,99,108,93.7
"CC(C)C[C@H](NC(=O)[C@H](Cc1ccccc1)NC(=O)c1cnccn1)B(O)O [Bortezomib] + O=C1NC(=O)/C(=C/c2ccc(-c3ccc(F)cc3O)o2)S1 [AS252424] (first compound 0.001 µM, partner dose 1 µM)",201,63.4,138,341,118,44.8,136,79,150,134,114,119,155,43.7,422,154
"O=C(O)[C@@H]1[O][Sb](=[O])([O][Sb]2(=[O])[O][C@H]([C@H](O)CO)[C@H](O)[C@H](C(=O)O)[O]2)[O][C@H]([C@H](O)CO)[C@@H]1O (stereo not given in full) [stibogluconate] + O=C(O)c1ccc(-c2c[nH]c3ncc(-c4ccccc4)cc23)cc1C1CCCC1 [GSK650394] (first compound 2 µM, partner dose 0.16 µM)",116,313,39.9,81.2,108,61.9,90.2,129,102,59,44.5,55.5,68,293,80,214
"CN1CCN(c2ccc3nc(-c4c(N)c5c(F)cccc5[nH]c4=O)[nH]c3c2)CC1 [Dovitinib] + O=C1NC(=O)/C(=C/c2ccc(-c3ccc(F)cc3O)o2)S1 [AS252424] (first compound 0.1 µM, partner dose 1 µM)",115,135,109,166,136,62.1,96.5,90,171,189,350,87.7,108,79.7,106,37.4
"Cn1c(=O)n(-c2ccc(C(C)(C)C#N)cc2)c2c3cc(-c4cnc5ccccc5c4)ccc3ncc21 + COc1ccc2c(c1)CCC1C2CCC2(C)C(NCCCCCCN3C(=O)C=CC3=O)CCC12 [U73122] (first compound 0.004 µM, partner dose 0.4 µM)",115,141,33.7,130,43.6,83,98.7,161,77,165,75.8,263,104,83.6,87.3,43.5
"C=C(c1ccc(C(=O)O)cc1)c1cc2c(cc1C)C(C)(C)CCC2(C)C [Bexarotene] + C=CCn1c(=O)c2cnc(Nc3ccc(N4CCN(C)CC4)cc3)nc2n1-c1cccc(C(C)(C)O)n1 [MK1775] (first compound 2 µM, partner dose 0.02 µM)",19.6,107,128,87,160,36.2,62.3,71.3,87.8,154,132,112,98.6,110,198,124
"CN1CCN(c2ccc3nc(-c4c(N)c5c(F)cccc5[nH]c4=O)[nH]c3c2)CC1 [Dovitinib] + O=C(Nc1cccc(Cl)c1)Nc1ncc(CCNc2ncnc3ccsc23)s1 [SNS314] (first compound 0.1 µM, partner dose 0.0008 µM)",244,103,57.3,134,110,128,384,89.2,127,75.9,196,54.9,107,59.1,116,217
"Cc1cc(Nc2cc(N3CCN(C)CC3)nc(/C=C/c3ccccc3)n2)n[nH]1 + CCc1ccc(CCOc2ccc(CC3SC(=O)NC3=O)cc2)nc1 [pioglitazone] (first compound 0.04 µM, partner dose 2 µM)",30.1,48.4,112,120,127,169,252,80.3,214,77.4,130,102,96.7,72.9,81.8,23.9
"Cc1cc(Nc2cc(N3CCN(C)CC3)nc(/C=C/c3ccccc3)n2)n[nH]1 + CC1(C)NC(=O)N(c2ccc([N+](=O)[O-])c(C(F)(F)F)c2)C1=O [nilutamide] (first compound 0.04 µM, partner dose 1 µM)",221,35.8,155,109,63.2,108,62.3,80.1,119,30.6,114,21.1,113,62.3,95,136
"O=C(O)[C@@H]1[O][Sb](=[O])([O][Sb]2(=[O])[O][C@H]([C@H](O)CO)[C@H](O)[C@H](C(=O)O)[O]2)[O][C@H]([C@H](O)CO)[C@@H]1O (stereo not given in full) [stibogluconate] + CCCCCCCCCCCC1=C(O)C(=O)C=C(O)C1=O [Embelin] (first compound 2 µM, partner dose 1.2 µM)",62.7,87,147,146,64,171,98,75.8,112,117,55.3,72.2,85.5,136,75.7,61.8
"CC(C)C[C@H](NC(=O)[C@H](Cc1ccccc1)NC(=O)c1cnccn1)B(O)O [Bortezomib] + COc1ccc(COc2ccc(Cc3cnc(N)nc3N)cc2OC)cc1 [GW2580] (first compound 0.001 µM, partner dose 1 µM)",138,61.9,541,79.6,151,110,124,88.1,451,70.1,161,567,123,182,213,28.7
"CC(C)C[C@H](NC(=O)[C@H](Cc1ccccc1)NC(=O)c1cnccn1)B(O)O [Bortezomib] + OCCn1cc(-c2cnc3nnn(Cc4ccc5ncccc5c4)c3n2)cn1 [PF04217903] (first compound 0.001 µM, partner dose 1 µM)",50.6,74.9,197,134,79.4,72.8,69.8,74,87.2,69.5,82.1,483,175,64.4,379,514

# Shown tab-delimited: entries from further up
Structure (SMILES)	cleaved PARP positive nuclei fraction (MZ2-MEL) [%]	cleaved PARP positive nuclei fraction (MeWo) [%]	cleaved PARP positive nuclei fraction (RPMI7951) [%]	cleaved PARP positive nuclei fraction (RVH-421) [%]	cleaved PARP positive nuclei fraction (SkMel28) [%]	cleaved PARP positive nuclei fraction (SkMel2) [%]	cleaved PARP positive nuclei fraction (SkMel30) [%]	cleaved PARP positive nuclei fraction (SkMel5) [%]	cleaved PARP positive nuclei fraction (UACC257) [%]	cleaved PARP positive nuclei fraction (UACC62) [%]	cleaved PARP positive nuclei fraction (WM115) [%]	cleaved PARP positive nuclei fraction (WM1716) [%]	cleaved PARP positive nuclei fraction (WM1745) [%]	cleaved PARP positive nuclei fraction (WM3526) [%]	cleaved PARP positive nuclei fraction (WM3619) [%]	cleaved PARP positive nuclei fraction (WM451Lu) [%]
Nc1ncn([C@H]2C[C@H](O)[C@@H](CO)O2)c(=O)n1 [decitabine] + C=CCn1c(=O)c2cnc(Nc3ccc(N4CCN(C)CC4)cc3)nc2n1-c1cccc(C(C)(C)O)n1 [MK1775] (first compound 0.1 µM, partner dose 0.02 µM)	56.4	55.6	273	96	72.5	79.7	65.5	75.6	41.2	104	56.1	143	98.9	60.8	124	70.3
CS(=O)(=O)CCNCc1ccc(-c2ccc3ncnc(Nc4ccc(OCc5cccc(F)c5)c(Cl)c4)c3c2)o1 [lapatinib] + COc1cc(N2CCC(N3CCN(C)CC3)CC2)ccc1Nc1ncc(Cl)c(Nc2ccccc2S(=O)(=O)C(C)C)n1 [NVP-TAE684] (first compound 0.8 µM, partner dose 0.08 µM)	162	79.8	39.8	137	141	31.8	77.4	89.6	345	118	68.5	29.8	111	100	99.9	93.8
C[C@@H](Oc1cc(-c2cnn(C3CCNCC3)c2)cnc1N)c1c(Cl)ccc(F)c1Cl [Crizotinib] + Oc1nc(-c2ccc(C(F)(F)F)cc2)nc2c1CSCC2 [XAV939] (first compound 0.2 µM, partner dose 2 µM)	117	99.6	62.2	107	92	80.1	38.1	85.7	154	72.3	102	219	97.6	59.2	102	74.5
